Experimental data: patent US9545120B2, “Method of lowering glycemic index of foods” (BASF SE, priority 2002, dated 2017)
Some of these results come from one statement about several compounds together.

Target: T1, Alpha-amylase from porcine pancreas (Sus scrofa, UniProt P00690)
T1 construct: purchased Sigma; host or cells: porcine pancreas
T1 sequence (P00690 16-511): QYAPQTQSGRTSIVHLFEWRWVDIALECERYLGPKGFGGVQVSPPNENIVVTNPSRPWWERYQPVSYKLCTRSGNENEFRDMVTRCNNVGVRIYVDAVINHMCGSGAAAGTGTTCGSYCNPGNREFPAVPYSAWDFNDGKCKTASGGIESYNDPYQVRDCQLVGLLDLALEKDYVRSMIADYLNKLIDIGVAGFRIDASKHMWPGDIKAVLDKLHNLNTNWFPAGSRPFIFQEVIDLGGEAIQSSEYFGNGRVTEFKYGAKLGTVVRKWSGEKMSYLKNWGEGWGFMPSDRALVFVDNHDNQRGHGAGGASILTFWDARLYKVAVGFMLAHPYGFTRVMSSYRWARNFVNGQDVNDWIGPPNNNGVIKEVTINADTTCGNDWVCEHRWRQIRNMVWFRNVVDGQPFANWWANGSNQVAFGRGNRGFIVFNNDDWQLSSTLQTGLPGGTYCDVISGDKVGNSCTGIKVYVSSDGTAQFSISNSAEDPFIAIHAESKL
Test: Alpha-amylase assay
Format: biochemical
Method: Alpha-amylase from porcine pancreas, alpha-glucosidase, glucoamylase and substrate (p-nitrophenyl-alpha-maltopentaoside) were purchased from Sigma. In the reaction, alpha-amylase (endo-type enzyme) hydrolysed the substrate into shorter chain glucosides and the auxiliary enzymes (exo-type enzymes) released the chromophore (p-nitrophenol) from the amylase-hydrolyzed malto-polysaccharides. For the assay, alpha-amylase (7.5 U/ml) was added to a substrate solution containing 1 mM p-nitrophenyl-alpha-maltopentaoside, 15 U/ml of alpha-glucosidase and 25 U/ml of glucoamylase in 50 mM HEPES buffer (pH 7.3) containing 3 mM CaCl2 and 40 mM NaCl. The reaction was carried out for 15 min at 37° C. in the presence vs. absence of flavonoids at concentrations ranged from 11.7 to 750 μg/ml. At the end of the incubation, 0.2 M borate, pH 9.8 was added to inactivate the enzymes and liberated p-nitrophenol was measured spectrophotometrically at 405 nm. The relative activity of alpha-amylase was calculated by subtracting reaction blanks containing the substrate, the two axillary enzymes and flavonoids at the same concentrations. The inhibitory activity was expressed as 100 minus relative absorbance difference between tested samples and controls.

With `COc1cc(-c2cc(=O)c3c(O)cc(O)cc3o2)cc(OC)c1O` [Tricin, tricin] the “concentration sufficient to produce complete inhibition of alpha-amylase” value was “lower than 1.6 mM”.
